Source: patent publication EP4554620A1
These are yes or no findings as the source states them, for the method shown. Binding calls can cover weak binding; strength is not graded here.

Key:
[1] = target: Human TIGIT residues 23-128 with C-terminal HIS tag (human); assay: co-crystal structure (figure legend)
[2] = target: Human TIGIT residues 23-128 with C-terminal HIS tag (human); assay: co-crystal structure; complex purified by gel filtration

binding [1]: binds
binding [2]: binds
B1: A1217 (Ociperlimab) Fab (Fab, V domains shown)
VH: EVQLVESGGGLVQPGGSLRLSCAASGFTFSDYYMYWVRQAPGKGLEWVAYITKGGGSTYYPDSVKGRFTISRDNAKNTLYLQMNSLRAEDTAVYYCARQTNYDFTMDYWGQGTLVTVSS
VL: EIVMTQSPATLSVSPGERATLSCKASQDVGTSVAWYQQKPGQAPRLLIYWASARHTGIPARFSGSGSGTEFTLTISSLQSEDFAVYYCQQYSSYPLTFGGGTKVEIK
